# According to the supplement of paper PMC8728848:
# The other results are listed elsewhere or left out.
# Experiments:
# Assay in all cases: glycan array binding signal (z-score within array); higher = stronger binding
# Settings in all cases: glycan notation: IUPAC condensed, linker removed
# GalNAc(b1-4)GlcNAc = target: GalNAc(b1-4)GlcNAc
# Procedure, shortened: (§1)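 Glycan array binding is given as a within-array Z-score, which can be read as non-binding when negative. The arrays, 3228 of them, came from the Consortium for Functional Glycomics database and were retained only where the protein sequence was available. Z-scores were averaged across arrays of the same protein sequence at different concentrations or buffers and across linkers.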
# [1] = target: GalNAc(b1-4)GlcNAc(b1-2)Man
# Procedure, shortened: as §1
# [2] = target: GalNAc(b1-4)GlcNAc(b1-2)Man(a1-3)[GalNAc(b1-4)GlcNAc(b1-2)Man(a1-6)]Man(b1-4)GlcNAc(b1-4)GlcNAc
# Procedure, shortened: as §1
# [3] = target: GalNAc(b1-4)GlcNAc(b1-3)GalNAc(b1-4)GlcNAc
# Procedure, shortened: as §1
# GalNAc(b1-4)GlcNAc6S = target: GalNAc(b1-4)GlcNAc6S
# Procedure, shortened: as §1
# GalNAc(b1-6)GalNAc = target: GalNAc(b1-6)GalNAc
# Procedure, shortened: as §1
# GalNAc3S(b1-4)GlcNAc = target: GalNAc3S(b1-4)GlcNAc
# Procedure, shortened: as §1
# GalNAc3S(b1-4)GlcNAc3S = target: GalNAc3S(b1-4)GlcNAc3S
# Procedure, shortened: as §1
# [4] = target: GalNAc3S(b1-4)[Fuc(a1-3)]GlcNAc
# Procedure, shortened: as §1
# GalNAc4S6S(b1-4)GlcNAc = target: GalNAc4S6S(b1-4)GlcNAc
# Procedure, shortened: as §1
# GalNAc6S(b1-4)GlcNAc = target: GalNAc6S(b1-4)GlcNAc
# Procedure, shortened: as §1
# Glc(a1-4)Glc = target: Glc(a1-4)Glc
# Procedure, shortened: as §1
# [5] = target: Glc(a1-4)Glc(a1-4)Glc(a1-4)Glc
# Procedure, shortened: as §1
# Glc(a1-6)Glc(a1-6)Glc = target: Glc(a1-6)Glc(a1-6)Glc
# Procedure, shortened: as §1
# [6] = target: Glc(a1-6)Glc(a1-6)Glc(a1-6)Glc
# Procedure, shortened: as §1
# Glc(b1-4)Glc = target: Glc(b1-4)Glc
# Procedure, shortened: as §1
# Glc(b1-6)Glc = target: Glc(b1-6)Glc
# Procedure, shortened: as §1
# GlcA(b1-3)Gal = target: GlcA(b1-3)Gal
# Procedure, shortened: as §1
# GlcA(b1-3)GlcNAc = target: GlcA(b1-3)GlcNAc
# Procedure, shortened: as §1
# GlcA(b1-6)Gal = target: GlcA(b1-6)Gal
# Procedure, shortened: as §1
# [7] = target: GlcA3S(b1-3)Gal(b1-4)GlcNAc(b1-2)Man
# Procedure, shortened: as §1
# [8] = target: GlcA3S(b1-3)Gal(b1-4)GlcNAc(b1-3)Gal(b1-4)Glc
# Procedure, shortened: as §1
# [9] = target: GlcNAc(a1-3)Gal(b1-4)GlcNAc
# Procedure, shortened: as §1
# [10] = target: GlcNAc(a1-4)Gal(b1-3)GlcNAc
# Procedure, shortened: as §1
# [11] = target: GlcNAc(a1-4)Gal(b1-4)GalNAc
# Procedure, shortened: as §1
# [12] = target: GlcNAc(a1-4)Gal(b1-4)GlcNAc
# Procedure, shortened: as §1
# [13] = target: GlcNAc(a1-4)Gal(b1-4)GlcNAc(b1-3)Gal(b1-4)Glc
# Procedure, shortened: as §1
# [14] = target: GlcNAc(a1-4)Gal(b1-4)GlcNAc(b1-3)Gal(b1-4)GlcNAc
# Procedure, shortened: as §1
# [15] = target: GlcNAc(a1-4)Gal(b1-4)GlcNAc(b1-3)Gal(b1-4)GlcNAc(b1-3)Gal(b1-4)GlcNAc
# Procedure, shortened: as §1
# [16] = target: GlcNAc(a1-4)Gal(b1-4)GlcNAc(b1-3)Gal(b1-4)[Fuc(a1-3)]GlcNAc(b1-3)Gal(b1-4)[Fuc(a1-3)]GlcNAc
# Procedure, shortened: as §1
# [17] = target: GlcNAc(a1-6)Gal(b1-4)GlcNAc
# Procedure, shortened: as §1
# [18] = target: GlcNAc(b1-2)Gal(b1-3)GalNAc
# Procedure, shortened: as §1
# [19] = target: GlcNAc(b1-2)Man(a1-3)[GlcNAc(b1-2)Man(a1-6)]Man(b1-4)GlcNAc(b1-4)GlcNAc
# Procedure, shortened: as §1
# [20] = target: GlcNAc(b1-2)Man(a1-3)[GlcNAc(b1-2)Man(a1-6)]Man(b1-4)GlcNAc(b1-4)[Fuc(a1-6)]GlcNAc
# Procedure, shortened: as §1
# [21] = target: GlcNAc(b1-2)Man(a1-3)[GlcNAc(b1-4)][GlcNAc(b1-2)Man(a1-6)]Man(b1-4)GlcNAc(b1-4)GlcNAc
# Procedure, shortened: as §1
# [22] = target: GlcNAc(b1-2)Man(a1-3)[GlcNAc(b1-4)][GlcNAc(b1-2)Man(a1-6)]Man(b1-4)GlcNAc(b1-4)[Fuc(a1-6)]GlcNAc
# Procedure, shortened: as §1
# [23] = target: GlcNAc(b1-2)[GlcNAc(b1-4)]Man(a1-3)[GlcNAc(b1-2)Man(a1-6)]Man(b1-4)GlcNAc(b1-4)GlcNAc
# Procedure, shortened: as §1
binder,measurement,setting,value
"MtEccB1 (Mycobacterium tuberculosis H37Rv), O69734 (protein) MGLRLTTKVQVSGWRFLLRRLEHAIVRRDTRMFDDPLQFYSRSIALGIVVAVLILAGAALLAYFKPQGKLGGTSLFTDRATNQLYVLLSGQLHPVYNLTSARLVLGNPANPATVKSSELSKLPMGQTVGIPGAPYATPVSAGSTSIWTLCDTVARADSTSPVVQTAVIAMPLEIDASIDPLQSHEAVLVSYQGETWIVTTKGRHAIDLTDRALTSSMGIPVTARPTPISEGMFNALPDMGPWQLPPIPAAGAPNSLGLPDDLVIGSVFQIHTDKGPQYYVVLPDGIAQVNATTAAALRATQAHGLVAPPAMVPSLVVRIAERVYPSPLPDEPLKIVSRPQDPALCWSWQRSAGDQSPQSTVLSGRHLPISPSAMNMGIKQIHGTATVYLDGGKFVALQSPDPRYTESMYYIDPQGVRYGVPNAETAKSLGLSSPQNAPWEIVRLLVDGPVLSKDAALLEHDTLPADPSPRKVPAGASGAP",glycan array binding signal (z-score),GalNAc(b1-4)GlcNAc,1.29
same,glycan array binding signal (z-score),[1],0.753
same,glycan array binding signal (z-score),[2],-1.04
same,glycan array binding signal (z-score),[3],-0.216
same,glycan array binding signal (z-score),GalNAc(b1-4)GlcNAc6S,-0.408
same,glycan array binding signal (z-score),GalNAc(b1-6)GalNAc,-1.22
same,glycan array binding signal (z-score),GalNAc3S(b1-4)GlcNAc,-0.943
same,glycan array binding signal (z-score),GalNAc3S(b1-4)GlcNAc3S,1.69
same,glycan array binding signal (z-score),[4],1.06
same,glycan array binding signal (z-score),GalNAc4S6S(b1-4)GlcNAc,0.026
same,glycan array binding signal (z-score),GalNAc6S(b1-4)GlcNAc,-1.3
same,glycan array binding signal (z-score),Glc(a1-4)Glc,-0.595
same,glycan array binding signal (z-score),[5],0.166
same,glycan array binding signal (z-score),Glc(a1-6)Glc(a1-6)Glc,-0.424
same,glycan array binding signal (z-score),[6],0.91
same,glycan array binding signal (z-score),Glc(b1-4)Glc,1.43
same,glycan array binding signal (z-score),Glc(b1-6)Glc,-0.909
same,glycan array binding signal (z-score),GlcA(b1-3)Gal,0
same,glycan array binding signal (z-score),GlcA(b1-3)GlcNAc,-0.514
same,glycan array binding signal (z-score),GlcA(b1-6)Gal,0.488
same,glycan array binding signal (z-score),[7],-1.14
same,glycan array binding signal (z-score),[8],-0.962
same,glycan array binding signal (z-score),[9],0.123
same,glycan array binding signal (z-score),[10],-0.11
same,glycan array binding signal (z-score),[11],-1.19
same,glycan array binding signal (z-score),[12],1.8
same,glycan array binding signal (z-score),[13],-0.079
same,glycan array binding signal (z-score),[14],0.812
same,glycan array binding signal (z-score),[15],0.138
same,glycan array binding signal (z-score),[16],0.799
same,glycan array binding signal (z-score),[17],-0.902
same,glycan array binding signal (z-score),[18],0.695
same,glycan array binding signal (z-score),[19],0.45
same,glycan array binding signal (z-score),[20],0.678
same,glycan array binding signal (z-score),[21],-1.8
same,glycan array binding signal (z-score),[22],0.682
same,glycan array binding signal (z-score),[23],-0.488

# Exported as tab-separated lines: part of the list above
binder	measurement	setting	value
MtEccB1 (Mycobacterium tuberculosis H37Rv), O69734 (protein) MGLRLTTKVQVSGWRFLLRRLEHAIVRRDTRMFDDPLQFYSRSIALGIVVAVLILAGAALLAYFKPQGKLGGTSLFTDRATNQLYVLLSGQLHPVYNLTSARLVLGNPANPATVKSSELSKLPMGQTVGIPGAPYATPVSAGSTSIWTLCDTVARADSTSPVVQTAVIAMPLEIDASIDPLQSHEAVLVSYQGETWIVTTKGRHAIDLTDRALTSSMGIPVTARPTPISEGMFNALPDMGPWQLPPIPAAGAPNSLGLPDDLVIGSVFQIHTDKGPQYYVVLPDGIAQVNATTAAALRATQAHGLVAPPAMVPSLVVRIAERVYPSPLPDEPLKIVSRPQDPALCWSWQRSAGDQSPQSTVLSGRHLPISPSAMNMGIKQIHGTATVYLDGGKFVALQSPDPRYTESMYYIDPQGVRYGVPNAETAKSLGLSSPQNAPWEIVRLLVDGPVLSKDAALLEHDTLPADPSPRKVPAGASGAP	glycan array binding signal (z-score)	GalNAc3S(b1-4)GlcNAc3S	1.69
same	glycan array binding signal (z-score)	[4]	1.06
